# Results from PubChem BioAssay AID540276 (National Center for Advancing Translational Sciences (NCATS), 2011).
# About 5,400 (1.8%) of roughly 300,000 compounds were called active. Inconclusive means that the source gave no clear call. Such entries were picked first, then a sample of the others. The call rests on the fitted dose curve; tested in HEK293 cells. Where the call is inconclusive, the potency comes from a doubtful curve fit.
# Assay: qHTS for inhibitors of binding or entry into cells for Marburg Virus
# Settings: Marburg virus pseudotyped entry inhibition, cell reporter; series mostly up to 37.8 µM
# Potency means the concentration at half of the fitted maximal effect.
row,Compound,Potency
1,COc1ccc(C(=O)NCC(c2cccs2)N2CCc3ccccc32)c(OC)c1 (stereo not given),inactive
2,COC(=O)c1ccccc1NC(=O)CN(c1cc(OC)ccc1OC)S(C)(=O)=O,"inconclusive: 4.11 µM [inhibitor, full curve, poor fit]"
3,CCn1c(SCC(=O)Nc2cc3oc4ccccc4c3cc2OC)nnc1-c1cccs1,"inconclusive: 18.3 µM [inhibitor, partial curve, poor fit]"
4,O=S(=O)(c1ccccc1)N1CCC(O)(CSc2ccc(Cl)cc2)CC1,"inconclusive: 7.08 µM [inhibitor, partial curve, poor fit]"
5,Cc1ccc(OCC(=O)NCCNC(=O)c2cccnc2)cc1C,inactive
6,Cc1ccc(NC(=O)c2ccccc2)cc1,"inconclusive: 0.651 µM [activator, full curve]"
7,COc1ccc(S(=O)(=O)N2CCC(C(=O)OCC(=O)c3ccccc3)CC2)cc1[N+](=O)[O-],"inconclusive: 17.8 µM [activator, partial curve, poor fit]"
8,Cc1cc(F)ccc1S(=O)(=O)N1CCCOC1CNC(=O)C(=O)NCCc1c[nH]c2ccccc12 (stereo not given),"inconclusive: 3.16 µM [inhibitor, single point]"
9,NC(=O)c1ccc(-c2nnn(CC(=O)N(C3CCCCC3)C3CCS(=O)(=O)C3)n2)cc1 (stereo not given),"inconclusive: 4.47 µM [activator, single point]"
10,Cc1ccc(NC(=O)c2cc3ccccc3o2)cc1Cl,inactive
11,CCN1C(=O)C(C(=O)c2ccccc2)SC1=S (stereo not given),inactive
12,O=C(COC(=O)C1CC1)NCCNC(=O)COC(=O)C1CC1,inactive
13,O=C(CCSc1nnc(-c2ccncc2)o1)Nc1ccccc1,inactive
14,COCCNc1ccc([N+](=O)[O-])cc1C(=O)NC1CCCc2ccccc21 (stereo not given),"inconclusive: 35.5 µM [inhibitor, single point]"
15,CCn1c2ccccc2c2cc(NC(=O)CSc3nnc(-c4ccccc4)o3)ccc21,inactive
16,CC(=O)c1sc(NC(=O)C2CCN(C(=O)c3ccc(F)cc3)CC2)nc1-c1ccccc1,"inconclusive: 10 µM [inhibitor, partial curve, poor fit]"
17,O=C(Cc1ccccc1)NCC(=O)OCc1ccccc1F,inactive
18,Cc1cccc(C)c1NC(=O)c1nc(S(C)(=O)=O)ncc1N(Cc1ccc(C(C)(C)C)cc1)Cc1ccco1,"inconclusive: 22.4 µM [inhibitor, partial curve, poor fit]"
19,O=C(Nc1nc(-c2ccccc2)cs1)C1CCCCN1S(=O)(=O)c1ccc(Cl)cc1 (stereo not given),"inconclusive: 23.1 µM [inhibitor, partial curve, poor fit]"
20,COc1ccc(-n2nc(C(=O)NCC(=O)N3CCN(Cc4ccc5c(c4)OCO5)CC3)c3ccccc3c2=O)cc1OC,"inconclusive: 3.98 µM [activator, single point]"
21,CCCCOc1ccc2c(C)cc(=O)oc2c1OCCCC,"inconclusive: 25.9 µM [inhibitor, single point]"
22,CCc1cccc(CC)c1NC(=O)CCS(=O)(=O)c1ccc(Br)s1,"inconclusive: 35.5 µM [inhibitor, single point]"
23,CCn1c(=O)c(C(=O)NCc2ccccn2)c(O)c2ccccc21,"inconclusive: 0.112 µM [inhibitor, full curve, poor fit]"
24,Cc1ccc(N2C(=O)N(c3ccc(C)cc3)C3CS(=O)(=O)CC32)cc1 (stereo not given),"inconclusive: 15.8 µM [inhibitor, single point]"

row,Compound,Potency
1,CCOC(=O)N1CCC(NC(=O)c2cc(C(=O)NC3CCN(Cc4ccccc4)CC3)ccc2CO)CC1,"inconclusive: 35.5 µM [inhibitor, single point]"
2,Cc1sc2nc(SCc3ccc(C(=O)O)cc3)n(Cc3ccco3)c(=O)c2c1C,"inconclusive: 14.1 µM [inhibitor, partial curve, poor fit]"
3,O=C(CN(Cc1ccccc1)S(=O)(=O)c1ccc2c(c1)OCCO2)N/N=C/c1cccc(Br)c1,"inconclusive: 5.62 µM [activator, single point]"
4,CCOC(=O)N/N=C/c1ccccc1-c1cc(OC)ccc1OC,inactive
5,C/C(=N\n1nnnc1Nc1ccccc1)c1ccc(N)cc1,inactive
6,CCOC(=O)c1ccccc1NC(=O)Cn1nnc2sc3c(c2c1=O)CCCC3,inactive
7,Nc1c(C(=O)NC2CCCC2)sc2nc(-c3cccs3)ccc12,inactive
8,COc1ccc(S(=O)(=O)N2CC(C)N(C(=O)N3CCOCC3)C2)cc1 (stereo not given),inactive
9,CCN(CC)CCOC(=O)c1ccc(NC(=O)CCNC(=O)Cn2ccc3ccccc3c2=O)cc1,inactive
10,O=C(COc1ccccc1)NCc1cccs1,"inconclusive: 6.31 µM [activator, single point]"
11,CCCCNC(=O)Nc1ccc(Br)cn1,inactive
12,O=C(O)CN1C(=O)SC(Nc2ccc(Cl)cc2)C1=O (stereo not given),"inconclusive: 8.91 µM [inhibitor, partial curve, poor fit]"
13,Cc1[nH]c2ccccc2c1C(=O)CSc1n[nH]c(N)n1,"inconclusive: 35.5 µM [inhibitor, partial curve, poor fit]"
14,Cc1ccc(C)c(NC(=O)C2Cc3ccccc3CN2C(=O)OCc2ccccc2)c1 (stereo not given),active: 2.51 µM
15,O=c1[nH]c2cccnc2n1Cc1ccccc1,inactive
16,Cn1c(=O)c(-c2ccccc2)cc2ccccc21,inactive
17,CCc1ccc(/C=N/NC(=O)c2c[nH]c3ccccc23)s1,inactive
18,CC1(C)CC(=O)c2cc(OCC(=O)N3CCCCCC3)ccc2O1,"inconclusive: 29.1 µM [activator, single point]"
19,CC1CCCN(S(=O)(=O)c2ccc3[nH]c4c(c3c2)CCCC4)C1 (stereo not given),"inconclusive: 7.08 µM [inhibitor, partial curve, poor fit]"
20,COC(=O)c1c(NC(=O)c2ccc(OC)cc2OC)sc2c1CCCCC2,inactive
21,O=[N+]([O-])c1cccc(S(=O)(=O)Nc2ccc3cn[nH]c3c2)c1,"inconclusive: 1.12 µM [activator, partial curve, poor fit]"
22,COC(=O)c1ccc(/C=N/NC(=O)c2cccc(F)c2)cc1,"inconclusive: 29.1 µM [inhibitor, single point]"
23,CCN(Cc1nc2cc(Cl)ccc2c(=O)[nH]1)C(=O)c1cc(C2CC2)nn1-c1ccccc1,inactive
24,c1ccc(CCNc2ncnc3c2cnn3-c2ccccc2)cc1,"inconclusive: 2.06 µM [activator, full curve, poor fit]"

# Structures from the list above with bromine:
row,Compound,Potency
22,CCc1cccc(CC)c1NC(=O)CCS(=O)(=O)c1ccc(Br)s1,"inconclusive: 35.5 µM [inhibitor, single point]"
3,O=C(CN(Cc1ccccc1)S(=O)(=O)c1ccc2c(c1)OCCO2)N/N=C/c1cccc(Br)c1,"inconclusive: 5.62 µM [activator, single point]"
11,CCCCNC(=O)Nc1ccc(Br)cn1,inactive

# The listing continues:

row,Compound,Potency
1,Cc1ccc(S(=O)(=O)n2ccc(-c3cccc(OCc4c(F)cccc4Cl)c3)n2)cc1,inactive
2,O=C(CN(C(=O)c1csnn1)c1cccc(C(F)(F)F)c1)NC1CCCC1,inactive
3,c1cncc(N=c2scc(-c3cccc4ccccc34)n2CCCn2ccnc2)c1,"inconclusive: 20 µM [inhibitor, single point]"
4,Cc1cc(C)nc(N2CCCC(C(=O)Nc3ccc4nc(C)c(C)nc4c3)C2)n1 (stereo not given),"inconclusive: 13 µM [inhibitor, partial curve, poor fit]"
5,COc1cccc2c1C(=O)c1c(O)c3c(c(O)c1C2=O)CC(O)(C(C)=NO)CC3OC1CC(N)C(O)C(C)O1 (stereo not given),"inconclusive: 2 µM [inhibitor, full curve, poor fit]"
6,COc1ccc(-n2c(=S)[nH]c3cc(C(=O)N4CCN(c5ccccc5)CC4)ccc3c2=O)cc1,inactive
7,Cc1ccc(Sc2ncccc2O)cc1,"inconclusive: 5.62 µM [activator, full curve, poor fit]"
8,Cc1ccc(C)c(-c2nn(-c3cc(N4CCN(CCO)CC4)ccc3[N+](=O)[O-])c(=O)c3ccccc23)c1,"inconclusive: 35.5 µM [inhibitor, single point]"
9,CCC(C)NCCCOc1cc(Cl)ccc1Cl (stereo not given),"inconclusive: 10.3 µM [inhibitor, partial curve, poor fit]"
10,CC(OC(=O)C1CCN(S(=O)(=O)c2ccc(Cl)cc2)CC1)C(=O)NC1CCCCC1C (stereo not given),inactive
11,COCCNc1nnc(SC(C)C(=O)Nc2ccc(-c3nc4ccc(C)cc4s3)cc2)s1 (stereo not given),"inconclusive: 35.5 µM [inhibitor, single point]"
12,O=C(/C=C/c1ccccc1)c1cc(Br)ccc(=O)c1O,active: 20 µM
13,c1ccc(CNc2ccc3ccccc3n2)nc1,"inconclusive: 14.6 µM [inhibitor, single point]"
14,CC1Sc2ccc(C(=O)OCc3ccccc3Cl)cc2NC1=O (stereo not given),"inconclusive: 3.16 µM [activator, partial curve, poor fit]"
15,Cc1nn(Cc2ccccc2)c2c1C(c1ccccc1)C(C#N)=C(N)O2 (stereo not given),"inconclusive: 11.2 µM [inhibitor, partial curve, poor fit]"
16,Cc1ccc(CNC(=O)C(Cc2ccccc2)NS(=O)(=O)c2ccc(Br)s2)cc1 (stereo not given),"inconclusive: 35.5 µM [inhibitor, partial curve, poor fit]"
17,CCc1ccc(C(=O)CN2C(=O)NC(C)(CCc3ccccc3)C2=O)cc1 (stereo not given),inactive
18,O=C(NCC(c1ccco1)N1CCOCC1)c1ccccc1 (stereo not given),"inconclusive: 1.58 µM [activator, partial curve, poor fit]"
19,COc1ccc(C(=O)C(CCC(CNC(C)(C)C)C(=O)c2ccc(OC)cc2)CNC(C)(C)C)cc1 (stereo not given),active: 2.06 µM
20,Cc1ccc(C(=O)CSc2nnc(C)s2)cc1,"inconclusive: 4.61 µM [activator, single point]"
21,CCCCC(CC)C(=O)Oc1ccc(O)c(C(C)(C)C)c1 (stereo not given),"inconclusive: 35.5 µM [inhibitor, single point]"
22,CCOC(=O)C(NC(C)=O)C(=O)O (stereo not given),"inconclusive: 15.8 µM [activator, single point]"
